Reference: the supplement of paper PMC10849652
Some of the results follow.

By UniProt entry, the sequences of proteins in these tests, tags left out. Where a name states a change or a piece, a line headed by the entry shows the natural chain unless it says otherwise.
UniProt O15270: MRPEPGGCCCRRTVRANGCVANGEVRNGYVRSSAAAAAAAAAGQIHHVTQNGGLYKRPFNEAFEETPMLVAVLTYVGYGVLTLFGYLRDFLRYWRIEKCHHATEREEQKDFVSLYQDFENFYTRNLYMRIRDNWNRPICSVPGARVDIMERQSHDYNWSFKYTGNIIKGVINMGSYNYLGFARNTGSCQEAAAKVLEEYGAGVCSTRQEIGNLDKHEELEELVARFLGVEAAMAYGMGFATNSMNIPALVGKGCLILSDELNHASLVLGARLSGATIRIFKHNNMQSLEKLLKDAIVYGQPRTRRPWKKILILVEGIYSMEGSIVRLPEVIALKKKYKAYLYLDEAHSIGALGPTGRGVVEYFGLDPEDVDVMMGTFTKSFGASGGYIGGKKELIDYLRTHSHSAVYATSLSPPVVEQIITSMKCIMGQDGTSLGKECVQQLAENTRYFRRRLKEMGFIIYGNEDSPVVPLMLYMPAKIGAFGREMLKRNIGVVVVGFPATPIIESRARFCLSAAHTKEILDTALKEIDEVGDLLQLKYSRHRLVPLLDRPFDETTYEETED
UniProt Q96SB4, whole entry, looked up: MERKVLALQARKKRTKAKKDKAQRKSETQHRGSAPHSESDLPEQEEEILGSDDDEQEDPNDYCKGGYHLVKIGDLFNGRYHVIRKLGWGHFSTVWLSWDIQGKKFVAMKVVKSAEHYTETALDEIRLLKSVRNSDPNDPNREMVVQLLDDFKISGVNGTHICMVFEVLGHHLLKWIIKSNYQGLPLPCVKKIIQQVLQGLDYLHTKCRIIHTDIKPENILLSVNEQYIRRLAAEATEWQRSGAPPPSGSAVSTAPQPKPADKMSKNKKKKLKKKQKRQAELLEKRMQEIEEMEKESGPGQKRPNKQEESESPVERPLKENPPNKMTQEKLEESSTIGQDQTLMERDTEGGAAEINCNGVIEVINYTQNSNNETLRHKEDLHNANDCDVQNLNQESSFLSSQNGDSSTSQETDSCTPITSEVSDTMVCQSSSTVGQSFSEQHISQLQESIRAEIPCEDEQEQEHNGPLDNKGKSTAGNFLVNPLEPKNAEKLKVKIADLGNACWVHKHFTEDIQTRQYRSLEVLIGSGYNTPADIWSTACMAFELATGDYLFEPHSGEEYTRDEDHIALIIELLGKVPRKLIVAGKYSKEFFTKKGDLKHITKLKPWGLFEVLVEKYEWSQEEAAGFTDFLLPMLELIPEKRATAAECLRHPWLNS
UniProt P49458: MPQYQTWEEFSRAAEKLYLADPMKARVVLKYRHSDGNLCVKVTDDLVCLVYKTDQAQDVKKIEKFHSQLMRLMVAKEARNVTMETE
UniProt Q13243: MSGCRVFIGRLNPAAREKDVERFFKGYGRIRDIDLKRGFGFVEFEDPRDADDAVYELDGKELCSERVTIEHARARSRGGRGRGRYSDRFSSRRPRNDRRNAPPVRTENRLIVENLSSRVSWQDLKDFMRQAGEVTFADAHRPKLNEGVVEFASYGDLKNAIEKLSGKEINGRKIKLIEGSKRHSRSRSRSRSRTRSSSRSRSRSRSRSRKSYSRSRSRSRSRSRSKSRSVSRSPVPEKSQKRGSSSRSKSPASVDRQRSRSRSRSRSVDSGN
UniProt Q9UQ35: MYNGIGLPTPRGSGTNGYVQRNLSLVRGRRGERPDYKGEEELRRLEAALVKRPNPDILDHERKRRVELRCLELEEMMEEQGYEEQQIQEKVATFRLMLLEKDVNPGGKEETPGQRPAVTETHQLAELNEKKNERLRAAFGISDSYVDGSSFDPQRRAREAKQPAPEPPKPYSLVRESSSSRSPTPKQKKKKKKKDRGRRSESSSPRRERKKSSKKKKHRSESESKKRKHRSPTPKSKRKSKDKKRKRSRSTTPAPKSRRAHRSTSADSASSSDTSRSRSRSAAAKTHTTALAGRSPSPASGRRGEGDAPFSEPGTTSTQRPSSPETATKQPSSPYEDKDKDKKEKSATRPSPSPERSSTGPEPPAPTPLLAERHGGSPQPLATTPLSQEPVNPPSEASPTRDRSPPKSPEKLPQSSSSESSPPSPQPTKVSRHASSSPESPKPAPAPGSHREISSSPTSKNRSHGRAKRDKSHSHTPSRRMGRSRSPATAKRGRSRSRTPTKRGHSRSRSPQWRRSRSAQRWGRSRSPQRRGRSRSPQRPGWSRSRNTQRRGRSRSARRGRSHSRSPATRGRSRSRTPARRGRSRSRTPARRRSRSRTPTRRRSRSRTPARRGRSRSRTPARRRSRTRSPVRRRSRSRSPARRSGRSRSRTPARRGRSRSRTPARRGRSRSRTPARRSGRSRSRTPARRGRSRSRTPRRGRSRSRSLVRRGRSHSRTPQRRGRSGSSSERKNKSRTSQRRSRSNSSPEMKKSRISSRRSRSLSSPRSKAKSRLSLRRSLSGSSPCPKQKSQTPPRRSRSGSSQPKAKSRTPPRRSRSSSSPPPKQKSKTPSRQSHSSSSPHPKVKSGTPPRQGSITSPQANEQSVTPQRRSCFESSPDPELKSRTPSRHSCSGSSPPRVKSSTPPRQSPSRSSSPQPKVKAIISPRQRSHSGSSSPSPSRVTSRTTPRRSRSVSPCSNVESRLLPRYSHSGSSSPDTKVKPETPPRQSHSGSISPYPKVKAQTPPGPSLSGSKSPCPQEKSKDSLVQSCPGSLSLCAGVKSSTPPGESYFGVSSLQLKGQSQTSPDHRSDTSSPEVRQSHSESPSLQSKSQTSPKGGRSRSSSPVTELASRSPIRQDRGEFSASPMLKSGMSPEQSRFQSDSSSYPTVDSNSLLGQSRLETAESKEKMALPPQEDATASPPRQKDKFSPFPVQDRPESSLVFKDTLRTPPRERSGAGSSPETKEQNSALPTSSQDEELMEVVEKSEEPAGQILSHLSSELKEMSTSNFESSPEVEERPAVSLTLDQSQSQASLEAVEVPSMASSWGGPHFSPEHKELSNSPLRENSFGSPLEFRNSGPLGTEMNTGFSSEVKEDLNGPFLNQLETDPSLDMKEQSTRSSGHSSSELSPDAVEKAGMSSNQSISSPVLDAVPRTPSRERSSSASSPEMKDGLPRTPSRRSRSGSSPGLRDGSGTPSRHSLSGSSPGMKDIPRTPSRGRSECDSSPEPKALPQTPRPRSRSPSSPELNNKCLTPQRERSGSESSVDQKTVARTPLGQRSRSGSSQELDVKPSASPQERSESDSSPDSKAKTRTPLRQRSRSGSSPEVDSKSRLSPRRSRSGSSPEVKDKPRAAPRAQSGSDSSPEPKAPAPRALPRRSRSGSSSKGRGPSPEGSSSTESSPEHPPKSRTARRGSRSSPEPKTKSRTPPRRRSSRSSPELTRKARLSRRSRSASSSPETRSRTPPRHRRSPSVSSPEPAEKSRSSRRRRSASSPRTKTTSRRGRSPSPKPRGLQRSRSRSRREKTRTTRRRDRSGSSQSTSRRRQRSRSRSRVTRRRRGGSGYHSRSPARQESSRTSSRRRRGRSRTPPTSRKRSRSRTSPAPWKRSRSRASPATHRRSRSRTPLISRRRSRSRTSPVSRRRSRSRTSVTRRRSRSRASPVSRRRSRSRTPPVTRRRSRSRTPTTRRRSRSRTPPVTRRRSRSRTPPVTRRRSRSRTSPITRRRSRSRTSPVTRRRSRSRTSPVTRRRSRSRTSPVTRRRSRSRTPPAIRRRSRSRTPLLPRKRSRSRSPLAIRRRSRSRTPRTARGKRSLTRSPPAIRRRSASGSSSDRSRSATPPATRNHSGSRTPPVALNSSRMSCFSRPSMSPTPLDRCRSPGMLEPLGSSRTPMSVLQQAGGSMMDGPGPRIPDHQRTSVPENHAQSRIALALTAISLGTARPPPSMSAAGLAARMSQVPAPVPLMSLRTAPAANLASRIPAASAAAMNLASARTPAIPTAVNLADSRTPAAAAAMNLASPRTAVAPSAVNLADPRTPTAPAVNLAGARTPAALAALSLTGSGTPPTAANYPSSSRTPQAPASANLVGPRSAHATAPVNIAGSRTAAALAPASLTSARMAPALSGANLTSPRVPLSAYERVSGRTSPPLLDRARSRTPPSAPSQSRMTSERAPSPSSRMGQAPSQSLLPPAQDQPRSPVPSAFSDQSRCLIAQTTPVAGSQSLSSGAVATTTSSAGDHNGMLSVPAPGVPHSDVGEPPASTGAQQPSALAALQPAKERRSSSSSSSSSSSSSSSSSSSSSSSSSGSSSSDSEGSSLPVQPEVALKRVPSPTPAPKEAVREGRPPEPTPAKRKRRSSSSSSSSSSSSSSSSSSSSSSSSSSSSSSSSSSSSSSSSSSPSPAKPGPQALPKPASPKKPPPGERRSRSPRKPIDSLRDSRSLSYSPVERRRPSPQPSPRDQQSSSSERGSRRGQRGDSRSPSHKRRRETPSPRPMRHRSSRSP
UniProt P09132: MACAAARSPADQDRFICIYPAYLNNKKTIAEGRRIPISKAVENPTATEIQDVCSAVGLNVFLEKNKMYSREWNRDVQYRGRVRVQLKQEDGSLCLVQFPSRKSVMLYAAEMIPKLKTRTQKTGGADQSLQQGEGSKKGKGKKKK
UniProt O43805: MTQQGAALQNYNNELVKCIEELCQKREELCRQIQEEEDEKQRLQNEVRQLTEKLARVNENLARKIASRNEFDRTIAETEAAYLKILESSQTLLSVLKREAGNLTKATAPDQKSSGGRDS
UniProt O95630, whole entry, looked up: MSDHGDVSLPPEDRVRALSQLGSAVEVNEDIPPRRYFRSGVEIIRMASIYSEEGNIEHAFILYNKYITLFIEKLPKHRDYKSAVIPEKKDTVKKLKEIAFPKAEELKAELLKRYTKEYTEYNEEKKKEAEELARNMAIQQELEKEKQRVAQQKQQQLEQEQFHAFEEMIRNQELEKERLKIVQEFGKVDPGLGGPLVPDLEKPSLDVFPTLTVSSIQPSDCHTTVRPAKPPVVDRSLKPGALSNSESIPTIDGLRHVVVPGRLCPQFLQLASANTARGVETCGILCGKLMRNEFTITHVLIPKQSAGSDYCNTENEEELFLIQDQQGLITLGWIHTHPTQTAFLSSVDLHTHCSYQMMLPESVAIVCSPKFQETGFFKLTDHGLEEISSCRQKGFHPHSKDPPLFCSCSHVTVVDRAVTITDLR
UniProt Q9HBM1: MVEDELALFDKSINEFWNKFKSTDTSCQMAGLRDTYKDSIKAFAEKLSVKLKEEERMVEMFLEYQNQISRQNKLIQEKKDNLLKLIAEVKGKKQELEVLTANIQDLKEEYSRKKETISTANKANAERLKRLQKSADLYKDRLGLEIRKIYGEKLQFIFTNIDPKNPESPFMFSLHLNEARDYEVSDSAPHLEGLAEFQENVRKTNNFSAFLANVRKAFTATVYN
UniProt Q9NSC7: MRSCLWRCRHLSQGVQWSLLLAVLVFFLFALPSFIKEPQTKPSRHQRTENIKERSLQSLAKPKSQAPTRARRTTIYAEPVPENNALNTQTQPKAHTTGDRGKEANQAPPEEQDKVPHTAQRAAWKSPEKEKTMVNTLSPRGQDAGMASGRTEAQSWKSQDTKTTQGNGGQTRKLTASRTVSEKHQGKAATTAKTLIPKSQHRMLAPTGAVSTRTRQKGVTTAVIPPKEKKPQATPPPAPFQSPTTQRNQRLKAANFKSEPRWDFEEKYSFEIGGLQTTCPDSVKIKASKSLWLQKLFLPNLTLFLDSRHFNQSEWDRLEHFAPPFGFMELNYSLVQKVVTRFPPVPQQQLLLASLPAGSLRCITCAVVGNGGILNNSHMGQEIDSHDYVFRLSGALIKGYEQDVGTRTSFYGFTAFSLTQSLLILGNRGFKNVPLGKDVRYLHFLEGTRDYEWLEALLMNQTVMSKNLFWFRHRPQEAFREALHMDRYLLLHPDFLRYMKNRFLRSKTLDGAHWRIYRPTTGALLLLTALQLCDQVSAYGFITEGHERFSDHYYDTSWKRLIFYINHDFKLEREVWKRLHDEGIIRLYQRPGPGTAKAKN
UniProt Q07955, whole entry, looked up: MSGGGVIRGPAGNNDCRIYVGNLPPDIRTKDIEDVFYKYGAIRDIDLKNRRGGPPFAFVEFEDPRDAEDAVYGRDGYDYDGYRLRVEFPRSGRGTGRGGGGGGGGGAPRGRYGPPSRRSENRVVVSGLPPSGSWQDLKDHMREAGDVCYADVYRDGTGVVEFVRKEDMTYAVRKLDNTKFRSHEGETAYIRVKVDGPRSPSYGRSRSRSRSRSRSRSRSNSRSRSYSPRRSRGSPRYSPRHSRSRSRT

Key:
Assay in all cases: log2 fold change, soluble protein after heating vs DMSO (PISA); higher = thermal stabilisation; K562 cells, 10 uM, 30 min; active = over 0.2 and 3.5 SD of the protein, either way, in both replicates (recomputed)
saracatinib = compound: CN1CCN(CCOc2cc(OC3CCOCC3)c3c(Nc4c(Cl)ccc5c4OCO5)ncnc3c2)CC1 [saracatinib]
In short: (§1)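 K562 cells (2×10^6 cells/mL) were treated with 10 μM compound for 30 min, and aliquots were heated for 3 min over 48°C-58°C. Pooled aliquots were extracted in PBS with 0.5% NP-40 at 4°C, and the supernatant after 21,000xg for 90 min was measured by TMTpro 16plex LC-MS/MS with channel sums equalised. Reported thermal stability, relative to control samples and from duplicates, is a log2 fold change.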

sotrastaurin = compound: CN1CCN(c2nc(C3=C(c4c[nH]c5ccccc45)C(=O)NC3=O)c3ccccc3n2)CC1 [sotrastaurin]
In short: as §1

alvocidib = compound: CN1CC[C@H](c2c(O)cc(O)c3c(=O)cc(-c4ccccc4Cl)oc23)[C@H](O)C1 [alvocidib]
In short: as §1

Tubastatin A = compound: CN1CCc2c(c3ccccc3n2Cc2ccc(C(=O)NO)cc2)C1 [Tubastatin A]
In short: as §1

[1] = compound: CNC(=O)C1=CC=CC=C1NC2=NC(=NC=C2Cl)NC3=C(C=C(C=C3)N4CCOCC4)OC
In short: as §1

defactinib = compound: CNC(=O)c1ccc(Nc2ncc(C(F)(F)F)c(NCc3nccnc3N(C)S(C)(=O)=O)n2)cc1 [defactinib]
In short: as §1

rucaparib = compound: CNCc1ccc(-c2[nH]c3cc(F)cc4c3c2CCNC4=O)cc1 [rucaparib]
In short: as §1

[2] = compound: CNc1nc(-c2ccc3c(N)n[nH]c3c2)cc(N2C[C@@H](C(=O)NC3CCCCC3)CC[C@H]2C)n1
In short: as §1

encorafenib = compound: COC(=O)N[C@@H](C)CNc1nccc(-c2cn(C(C)C)nc2-c2cc(Cl)cc(NS(C)(=O)=O)c2F)n1 [encorafenib]
In short: as §1

[3] = compound: COC(=O)[C@H](CCSC)NC(=O)C1=C(C=C(C=C1)NC[C@H](CS)N)C2=CC=CC=C2
In short: as §1

[4] = compound: COC1=CC=C(C=C1)CN2C=CC3=C2C=C(C=C3)C(=O)NO
In short: as §1

filanesib = compound: CON(C)C(=O)N1N=C(c2cc(F)ccc2F)S[C@@]1(CCCN)c1ccccc1 [filanesib]
In short: as §1

zotarolimus = compound: CO[C@H]1C[C@@H]2CC[C@@H](C)[C@@](O)(O2)C(=O)C(=O)N2CCCC[C@H]2C(=O)O[C@H]([C@H](C)C[C@@H]2CC[C@H](n3cnnn3)[C@H](OC)C2)CC(=O)[C@H](C)/C=C(\C)[C@@H](O)[C@@H](OC)C(=O)[C@H](C)C[C@H](C)/C=C/C=C/C=C/1C [zotarolimus]
In short: as §1

idasanutlin = compound: COc1cc(C(=O)O)ccc1NC(=O)[C@@H]1N[C@@H](CC(C)(C)C)[C@](C#N)(c2ccc(Cl)cc2F)[C@H]1c1cccc(Cl)c1F [idasanutlin]
In short: as §1

alisertib = compound: COc1cc(Nc2ncc3c(n2)-c2ccc(Cl)cc2C(c2c(F)cccc2OC)=NC3)ccc1C(=O)O [alisertib]
In short: as §1

[5] = compound: COc1cc2nc(-c3cc(F)ccc3O)nc(N[C@@H]3CNC[C@H]3C(C)(C)O)c2cc1OC
In short: as §1

gefitinib = compound: COc1cc2ncnc(Nc3ccc(F)c(Cl)c3)c2cc1OCCCN1CCOCC1 [gefitinib]
In short: as §1

[6] = compound: COc1cccc2cc(-c3nc([C@H]4CC[C@H](C(=O)O)CC4)n4ncnc(N)c34)[nH]c12
In short: as §1

lapatinib = compound: CS(=O)(=O)CCNCc1ccc(-c2ccc3ncnc(Nc4ccc(OCc5cccc(F)c5)c(Cl)c4)c3c2)o1 [lapatinib]
In short: as §1

pictilisib = compound: CS(=O)(=O)N1CCN(Cc2cc3nc(-c4cccc5[nH]ncc45)nc(N4CCOCC4)c3s2)CC1 [pictilisib]
In short: as §1

| Target | log2 fold change (saracatinib) | log2 fold change (sotrastaurin) | log2 fold change (alvocidib) | log2 fold change (Tubastatin A) | log2 fold change [1] | log2 fold change (defactinib) | log2 fold change (rucaparib) | log2 fold change [2] | log2 fold change (encorafenib) | log2 fold change [3] | log2 fold change [4] | log2 fold change (filanesib) | log2 fold change (zotarolimus) | log2 fold change (idasanutlin) | log2 fold change (alisertib) | log2 fold change [5] | log2 fold change (gefitinib) | log2 fold change [6] | log2 fold change (lapatinib) | log2 fold change (pictilisib) |
| --- | --- | --- | --- | --- | --- | --- | --- | --- | --- | --- | --- | --- | --- | --- | --- | --- | --- | --- | --- | --- |
| SPTLC2 (UniProt O15270) | inactive: 0.029 | inactive: 0.021 | inactive: -0.048 | inactive: 0.005 | inactive: 0.028 | inactive: -0.038 | inactive: -0.079 | inactive: 0.026 | inactive: 0.002 | inactive: 0.015 | inactive: -0.008 | inactive: -0.119 | inactive: 0.019 | inactive: -0.04 | inactive: -0.019 | inactive: -0.035 | inactive: 0.011 | inactive: 0.031 | inactive: 0.022 | inactive: 0.102 |
| SRPK1 (UniProt Q96SB4) | inactive: -0.214 | inactive: -0.025 | inactive: 0.453 | inactive: 0.116 | inactive: 0.102 | inactive: 0.407 | inactive: 0.283 | inactive: 0.132 | inactive: 0.152 | inactive: -0.065 | inactive: -0.092 | inactive: 0.259 | inactive: 0.021 | inactive: 0.158 | inactive: 0.005 | inactive: -0.084 | inactive: -0.052 | inactive: -0.149 | inactive: 0.137 | inactive: -0.182 |
| SRP9 (UniProt P49458) | inactive: -0.048 | inactive: 0 | inactive: 0.271 | inactive: 0.087 | inactive: 0.018 | inactive: 0.28 | inactive: 0.209 | inactive: 0.058 | inactive: 0.145 | inactive: 0.034 | inactive: -0.06 | inactive: 0.332 | inactive: -0.054 | inactive: 0.19 | inactive: -0.078 | inactive: -0.049 | inactive: -0.036 | inactive: -0.171 | inactive: 0.09 | inactive: -0.103 |
| SRSF5 (UniProt Q13243) | inactive: -0.1 | inactive: 0.002 | inactive: 0.098 | inactive: 0.175 | inactive: -0.079 | inactive: 0.195 | inactive: 0.263 | inactive: 0.081 | inactive: 0.171 | inactive: 0.031 | inactive: -0.04 | inactive: 0.308 | inactive: 0.143 | inactive: 0.036 | inactive: -0.109 | inactive: -0.043 | inactive: -0.038 | inactive: -0.12 | inactive: 0.133 | inactive: -0.025 |
| SRRM2 (UniProt Q9UQ35) | inactive: -0.026 | inactive: -0.048 | active: -0.412 | inactive: 0.093 | inactive: -0.264 | inactive: -0.298 | inactive: 0.013 | inactive: -0.009 | inactive: -0.013 | inactive: 0.047 | inactive: 0.018 | inactive: 0.097 | inactive: 0.05 | inactive: 0.166 | inactive: -0.121 | inactive: -0.293 | inactive: 0.018 | inactive: 0.028 | inactive: 0.01 | inactive: 0.117 |
| SPTAN1 isoform 2 (UniProt Q13813) | inactive: 0.099 | inactive: -0.223 | inactive: -0.045 | inactive: -0.002 | inactive: 0.034 | inactive: -0.046 | inactive: -0.023 | inactive: -0.109 | inactive: -0.025 | inactive: -0.001 | inactive: -0.03 | inactive: 0.07 | inactive: 0 | inactive: 0.021 | inactive: 0.301 | inactive: 0.109 | inactive: 0.09 | inactive: -0.012 | inactive: 0.04 | inactive: 0.057 |
| SRP19 (UniProt P09132) | inactive: 0.001 | inactive: -0.019 | inactive: 0.003 | inactive: 0.131 | inactive: -0.035 | inactive: -0.043 | inactive: 0.099 | inactive: 0.033 | inactive: 0.097 | inactive: 0.002 | inactive: 0.154 | inactive: 0.009 | inactive: 0 | inactive: 0.033 | inactive: -0.01 | inactive: 0.028 | inactive: 0.083 | inactive: -0.062 | inactive: 0.028 | inactive: 0 |
| SSNA1 (UniProt O43805) | inactive: 0.003 | inactive: 0.029 | inactive: -0.008 | inactive: -0.01 | inactive: -0.008 | inactive: 0.005 | inactive: -0.052 | inactive: -0.096 | inactive: -0.025 | inactive: 0.021 | inactive: 0.071 | inactive: -0.035 | inactive: 0.031 | inactive: 0.04 | inactive: -0.044 | inactive: -0.02 | inactive: -0.02 | inactive: 0.023 | inactive: 0.007 | inactive: 0.125 |
| SRRM1 (UniProt Q8IYB3) | inactive: 0.035 | inactive: 0.033 | inactive: 0.088 | inactive: -0.058 | inactive: -0.095 | inactive: 0.007 | inactive: 0.186 | inactive: -0.019 | inactive: 0.044 | inactive: 0.072 | inactive: -0.049 | inactive: 0.188 | inactive: 0.001 | inactive: 0.217 | inactive: 0.028 | inactive: -0.213 | inactive: 0 | inactive: 0 | inactive: 0.055 | inactive: -0.156 |
| SPATA5 (UniProt Q8NB90) | inactive: 0.025 | inactive: 0.023 | inactive: 0.065 | inactive: -0.025 | inactive: 0 | inactive: 0.041 | inactive: 0.045 | inactive: -0.044 | inactive: 0 | inactive: 0.015 | inactive: -0.004 | inactive: 0.046 | inactive: -0.014 | inactive: -0.008 | inactive: -0.042 | inactive: 0.012 | inactive: -0.002 | inactive: 0.006 | inactive: 0 | inactive: 0 |
| STAMBP (UniProt O95630) | inactive: -0.117 | inactive: -0.095 | inactive: -0.111 | inactive: 0.033 | inactive: 0.101 | inactive: -0.093 | inactive: 0.068 | inactive: -0.009 | inactive: 0.02 | inactive: -0.038 | inactive: -0.011 | inactive: 0.021 | inactive: 0.049 | inactive: -0.001 | inactive: -0.053 | inactive: 0.061 | inactive: 0.025 | inactive: -0.067 | inactive: -0.04 | inactive: 0.045 |
| SPC25 (UniProt Q9HBM1) | inactive: -0.013 | inactive: -0.042 | inactive: -0.086 | inactive: 0.028 | inactive: 0.009 | inactive: -0.04 | inactive: -0.01 | inactive: -0.035 | inactive: 0.025 | inactive: 0.024 | inactive: 0.048 | inactive: 0.021 | inactive: 0.037 | inactive: -0.024 | inactive: -0.056 | inactive: -0.076 | inactive: 0.028 | inactive: -0.054 | inactive: 0.008 | inactive: -0.012 |
| SPTB isoform 2 (UniProt P11277) | inactive: -0.07 | inactive: 0.291 | inactive: -0.081 | inactive: 0.569 | inactive: 0.042 | inactive: 0.087 | inactive: 0.377 | inactive: 0.157 | inactive: 0.132 | inactive: -0.102 | inactive: -0.148 | inactive: 0.346 | inactive: 0.047 | inactive: 0.032 | inactive: -0.028 | inactive: -0.179 | inactive: -0.097 | inactive: -0.216 | inactive: -0.053 | inactive: -0.028 |
| ST6GALNAC1 (UniProt Q9NSC7) | inactive: -0.002 | inactive: -0.086 | inactive: 0.063 | inactive: 0.057 | inactive: 0.084 | inactive: 0.03 | inactive: -0.003 | inactive: -0.093 | inactive: -0.039 | inactive: -0.202 | inactive: -0.021 | inactive: -0.02 | inactive: 0.036 | inactive: 0.067 | inactive: -0.068 | inactive: 0.134 | inactive: 0.137 | inactive: 0.003 | inactive: -0.246 |  |
| SRSF1 (UniProt Q07955) | inactive: 0.031 | inactive: 0.105 | inactive: 0.219 | inactive: 0.031 | inactive: -0.167 | inactive: 0.137 | inactive: 0.257 | inactive: 0.015 | inactive: 0.06 | inactive: 0.047 | inactive: 0.073 | inactive: 0.248 | inactive: -0.046 | inactive: 0.237 | inactive: -0.107 | inactive: -0.024 | inactive: -0.008 | inactive: 0.004 | inactive: 0.067 | inactive: -0.124 |
| STAG1 (UniProt Q8WVM7) | inactive: -0.016 | inactive: -0.021 | inactive: -0.035 | inactive: 0.04 | inactive: -0.031 | inactive: -0.08 | inactive: -0.116 | inactive: -0.011 | inactive: 0.042 | inactive: -0.055 | inactive: 0.096 | inactive: -0.001 | inactive: 0.045 | inactive: -0.046 | inactive: -0.056 | inactive: 0.015 | inactive: 0.002 | inactive: 0 | inactive: 0.023 | inactive: 0.005 |

A few values from the list:
log2 fold change (filanesib) with SPC25 (UniProt Q9HBM1) is entered as inactive: 0.021
log2 fold change [4] with SSNA1 (UniProt O43805) is entered as inactive: 0.071
